Assay results as given in article PMC3406032, “Tristetraprolin Inhibits Poly(A)-Tail Synthesis in Nuclear mRNA that Contains AU-Rich Elements by Interacting with Poly(A)-Binding Protein Nuclear 1” (PLoS ONE, 2012).
No constants are given. Whether binding was seen depends on the method and setting. For some assays here: Binding calls can cover weak binding; strength is not graded here. Tags and fused reporters may be left off the sequences shown.

T1: maltose-binding protein-TTP-(His)6 (mouse) (UniProt P22893)
T1 sequence: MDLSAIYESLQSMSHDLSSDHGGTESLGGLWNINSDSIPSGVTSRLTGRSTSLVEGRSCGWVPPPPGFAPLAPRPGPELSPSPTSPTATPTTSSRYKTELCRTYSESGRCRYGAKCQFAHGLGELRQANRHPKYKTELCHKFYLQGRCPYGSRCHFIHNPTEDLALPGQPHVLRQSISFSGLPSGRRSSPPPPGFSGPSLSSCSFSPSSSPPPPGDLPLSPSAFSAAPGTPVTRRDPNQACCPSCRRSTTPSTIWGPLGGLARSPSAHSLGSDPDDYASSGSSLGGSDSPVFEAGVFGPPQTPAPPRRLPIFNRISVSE

B1: N-terminally glutathione S-transferase-tagged wild-type TTP (natural protein, mouse, UniProt P22893 2-319, looked up)
chain: DLSAIYESLQSMSHDLSSDHGGTESLGGLWNINSDSIPSGVTSRLTGRSTSLVEGRSCGWVPPPPGFAPLAPRPGPELSPSPTSPTATPTTSSRYKTELCRTYSESGRCRYGAKCQFAHGLGELRQANRHPKYKTELCHKFYLQGRCPYGSRCHFIHNPTEDLALPGQPHVLRQSISFSGLPSGRRSSPPPPGFSGPSLSSCSFSPSSSPPPPGDLPLSPSAFSAAPGTPVTRRDPNQACCPSCRRSTTPSTIWGPLGGLARSPSAHSLGSDPDDYASSGSSLGGSDSPVFEAGVFGPPQTPAPPRRLPIFNRISVSE
notes: also called WT GST-TTP; GST-TTP; source: E. coli STBL2 or Rosetta(DE3)pLacI, purified (glutathione-agarose); not shown: GST, N-terminal, kept

Tests used:
[1] = biological target: T1, maltose-binding protein-TTP-(His)6 (mouse); experiment: phage display biopanning; 10 µg MBP-TTP-(His)6 immobilised on 20 µl Ni-NTA resin; amplified T7 phage library (RAW264.7 cDNA) added overnight at 4°C; 50 mM Tris-Cl pH 7.5, 150 mM NaCl, 0.1% Tween-20; 10 rounds; clones of rounds 4, 9 and 10 sequenced; only the target purified
[2] = biological target: MBP-PABPN1@1-245 (mouse); experiment: pull-down; MBP-PABPN1-HA-(His)6, a deletion mutant of it or MBP (1 µg) immobilised on amylose resin; 1 µg target protein added overnight at 4°C; 20 mM Tris-Cl pH 7.0, 150 mM NaCl, 0.1% NP-40, 5 mM MgCl2, 1 mM DTT; Coomassie Blue and western blot (anti-GST, anti-myc); both purified
[3] = biological target: MBP-PABPN1@1-271 (mouse); experiment: as above
[4] = biological target: MBP-PABPN1@144-245 (mouse); experiment: as above
[5] = biological target: MBP-PABPN1@144-302 (mouse); experiment: as above
[6] = biological target: MBP-PABPN1@203-271 (mouse); experiment: as above
[7] = biological target: MBP-PABPN1@203-302 (mouse); experiment: as above
[8] = biological target: MBP-PABPN1@246-302 (mouse); experiment: as above

Molecule | binding [1] | binding [2] | binding [3] | binding [4] | binding [5] | binding [6] | binding [7] | binding [8]
PABPN1 residues 131-302, displayed on T7 phage (mouse) (domain or fragment) | binds |  |  |  |  |  |  | 
B1 |  | no binding (tested: 1 µg) | no binding (tested: 1 µg) | no binding (tested: 1 µg) | binds | binds | binds | binds
